Measured values: PubChem BioAssay AID1347426 (Functional Genomics Laboratory (NCATS/FGL), 2020)
Among all 31,000 sequences or so, about 1,400 (4.5%) were called active.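 Rule for the calls: active = median seed-adjusted z-score above 1 or below -1; inactive = the rest.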 The list shows a part of the results.

Experiment: Novel Modifiers of Survival Motor Neuron (SMN) Protein: Gene Identification via Genome-wide siRNA Screen;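 note: luminescence tracks full-length SMN protein made from the SMN2 reporter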
Conditions: HEK293T SMN2-luciferase reporter, siRNA knockdown, 72 h; actives lie on both sides
Outline: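 HEK293T cells stably carrying an SMN2 promoter/splicing cassette–luciferase reporter were reverse-transfected with 1 pmol siRNA per well (druggable-genome library, 3 siRNAs per gene) and grown 72 h at 37 °C. Luminescence, normalized to negative-control siRNA and log10-transformed, was scored as MAD.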

Row | Sequence | median seed-adjusted z-score
1 | CCAUCAACAUCGCAGAUGATT against ABHD11 | inactive: -0.189
2 | AGCACGAGCUGAAACUGCUTT against SLC4A2 | inactive: -0.539
3 | GGUGAAUGUUUACGAAACATT against FUT10 | inactive: -0.629
4 | GGCUUAACCUGGUGAUAAATT against GLUD1 | inactive: 0.156
5 | UUUCCUAUCUGGAACCGAATT against SFXN2 | inactive: 0.365
6 | AGUGCAAUGUGGAUAUUUATT against CHST7 | inactive: 0
7 | GCACCGGUAGUAAACAUAUTT against CYP4Z1 | inactive: -0.139
8 | CAAUCACUCAGGAACAAAUTT against CHMP6 | active: -1.81
9 | GGAAAUGCGGACUAUAUUATT against PHF15 | inactive: 0
10 | GGGUACUAUGUAGAGAAGATT against PFDN5 | inactive: 0.562
11 | GGAGCAGUAUGCUAAGCGATT against PIP4K2C | inactive: 0.27
12 | CGAUUUGUACAAAAACGAUTT against DTNB | inactive: -0.142
13 | CGCACAGUGCCUAACCCUATT against RAB26 | inactive: 0.171
14 | GAAGAUCUCUGUGAGAAGATT against LRRC47 | inactive: 0.00856
15 | GCGAGUGGUUGGACAGAUATT against GPR128 | inactive: -0.208
16 | CGACUACUGCACAUCCAAATT against DHRS3 | inactive: 0.175
17 | GGCUUUACAUUCCUAAAGATT against SKIV2L2 | inactive: 0.642
18 | CCCUUAAACUGGUUACAUATT against PIGB | inactive: 0.199
19 | GCCUGACCAUCGUGAGCAATT against APC2 | inactive: 0.00354
20 | GGCCUGUUCUCCAUCUACATT against TCIRG1 | inactive: 0.123
21 | GCAUUACAAAGAAUUUCGATT against BMP5 | inactive: 0.0733
22 | GGAGCUCUGUAAUACACCUTT against DCHS2 | inactive: 0

Another view of some results above.
GGAAAUGCGGACUAUAUUATT against PHF15
  median seed-adjusted z-score: inactive: 0
GGCCUGUUCUCCAUCUACATT against TCIRG1
  median seed-adjusted z-score: inactive: 0.123

The results go on:

Row | Sequence | median seed-adjusted z-score
23 | GGGCCUAUACUAUCACCAUTT against ITIH5L | inactive: -0.407
24 | GCAUCAUGAUGGGUCCCAATT against CATSPER1 | inactive: 0.655
25 | GGAAUAGAUUUAACGGCUATT against SLC22A10 | inactive: -0.0897
26 | CCUCGUUAUGAAGAACUAUTT against PINK1 | inactive: 0.192
27 | GGAUGAUGCUUUUGCUGGATT against LGI2 | inactive: 0
28 | GGAGGGCAUUGUCACUAAATT against MCM3 | inactive: 0.339
29 | GCAUAUUUGUAGUGAACGATT against PJA2 | inactive: 0
30 | GGAGAGUUAUGUGGAGUAATT against AFM | inactive: 0
31 | AGUGCGUCAUCCUAAGGAATT against WDR1 | inactive: -0.457
32 | GAUCAACGGUGGAUUUGGUTT against AMDHD2 | inactive: -0.0707
33 | AGUAUUUCAUUGUUGCAGATT against NAT5 | inactive: -0.0124
34 | GGUCCUGUUUGAGACAGUATT against AP1G2 | inactive: 0.0657
35 | GCUCAUCUGUGACCUACGATT against GLB1 | inactive: -0.543
36 | UCGUGGACCUGGUCUGUUATT against OGDHL | inactive: -0.0878
37 | GGAUGCACCAGACACCUAUTT against DNASE1 | inactive: -0.35
38 | GUUAUUUGCUAAUUAGAUATT against GJB2 | inactive: -0.408
39 | GCAAUUAACAAUUAUCGAUTT against RNASE3 | inactive: 0.588
40 | GGCUAGAGUUGCAACUACATT against EPRS | inactive: -0.391
41 | GCGCACAACUCACCCUUUATT against TYRP1 | inactive: 0.173
42 | AAGGAGCAGUGGAUACUGATT against MST1 | active: -1.47
43 | CUGCAGGAAGGCUCAUAAATT against GNPTG | inactive: -0.401
44 | GCACGAAGGUCCAAGUCCATT against SFRS2 | inactive: 0.263

Row | Sequence | median seed-adjusted z-score
45 | CCAUCGACUACAAACGGAATT against NDUFA13 | inactive: -0.138
46 | GAUCCACACUUCAACGAUATT against CSNK2A2 | inactive: -0.155
47 | CGGCCGCUCUAUAAGCUGATT against LLGL1 | active: -1.13
48 | GCAUAAAUGAAAUCUCGGATT against ZMYND8 | inactive: -0.065
49 | CAACCAAUAUAGAACUUCATT against RBBP5 | inactive: 0.169
50 | GCGUUGGUCGGGAUGAUUATT against P2RY10 | inactive: -0.432
51 | CAAUCAACCUGUUAAGCUUTT against TXNL1 | inactive: -0.554
52 | GUUAGUAUUUUUACGAGAATT against ZNF645 | inactive: 0.079
53 | GCAUGGAAAUCAACAUCCUTT against CCNB3 | inactive: 0
54 | GACCUGUACUUUGAGAACATT against MMEL1 | inactive: 0.325
55 | CAGUUGAUUUAAGAGGUAATT against PRPF4B | active: -2.29
56 | GCAAGAAUCAGACCCAAUUTT against GLRA3 | inactive: 0.0585
57 | CGAUACGUCUUUACAAGAATT against INPP4A | inactive: 0.379
58 | CCUCGUUCCUCUACUGCAATT against PCDH9 | inactive: 0.165
59 | CAAGAGCACUUAGUGCACATT against USP45 | inactive: -0.203
60 | GGCUGUUCAUUGAUUGAGATT against GPR61 | inactive: 0
61 | CAACCGGACGUACCACUUUTT against DDEFL1 | inactive: 0.293
62 | GGAGUGAAGUAAAACGGGATT against ITSN2 | inactive: 0.933
63 | CUGGCUCUGUUUGUCCUCATT against SLC28A1 | inactive: 0.129
64 | GACUCUCAAUAAUCAUCAATT against ZNF157 | inactive: 0.137
65 | GGUUAGAACAAGAGGUAAATT against ROCK1 | inactive: -0.306
66 | CCACUACCAGAUCUAUUCUTT against PIK3R4 | inactive: -0.502

Row | Sequence | median seed-adjusted z-score
67 | CGACCCAACUACAACGUGATT against DNAJC6 | inactive: -0.265
68 | CCGUUAAUAUAUACGAUGATT against TPP2 | inactive: -0.562
69 | GAGGAAUUCUUAAACCAGUTT against MAPK7 | inactive: -0.0118
70 | CCUUUGAAGAUUUACGAGATT against NEDD4L | inactive: 0.212
71 | CUACUUAAUUGGGUGUAUATT against SLC9A10 | inactive: -0.0418
72 | CGAGGGACAGUUCAACUGATT against IL13 | inactive: 0.435
73 | AGUAUACGCUGCCCUCAUATT against RNASE3 | inactive: 0.588
74 | GGAGAGCUGUUGGUACUUUTT against TAAR9 | active: -1.07
75 | GCAGAGUUUCUUCAUCGAATT against DOCK11 | inactive: 0.293
76 | CAGCUAUAGCAGUAUAAGATT against PTPRK | inactive: 0
77 | GCUCUUCGGGAGAAUCUUUTT against CTNNAL1 | inactive: 0.229
78 | AACCUAUCGUCACAACUUATT against ZNF492 | inactive: 0.0668
79 | GCUGAACAACGACUGCUCCTT against LYPD1 | inactive: -0.0713
80 | GGAUUUUGCCUUAGCGGUATT against OSBPL8 | inactive: 0.231
81 | GAUCUACACUUGGAUGGAUTT against SAP18 | active: 2.14
82 | AGACCUCGGUUAAAAACAATT against RAB42 | inactive: 0.241
83 | GGAUGAUGGAGAAGACUCATT against CPSF2 | inactive: 0.0263
84 | CUACUGAAGUAUACGUAAATT against CD47 | inactive: 0.0241
85 | GCAUCGUUGGGAAACGAAATT against INADL | inactive: 0.53
86 | CCUAUAAGAUGUGCACGGATT against HMG20B | inactive: 0.231
87 | AUUUCUCUGUGAAGACAAATT against FCGR3A | inactive: 0.0786
88 | GGGUCAAUCAGACUCUUAATT against PLS1 | inactive: -0.0715

Some of the entries above, reformatted:
Row,Sequence,median seed-adjusted z-score
77,GCUCUUCGGGAGAAUCUUUTT against CTNNAL1,inactive: 0.229
78,AACCUAUCGUCACAACUUATT against ZNF492,inactive: 0.0668
79,GCUGAACAACGACUGCUCCTT against LYPD1,inactive: -0.0713

The results go on.

Row | Sequence | median seed-adjusted z-score
89 | CUGCUGCGCCUGUACUUCATT against CD151 | inactive: -0.0305
90 | GGGCACCACCAUUAAGAAATT against SLC7A7 | inactive: 0.209
91 | GGCUAUUGAUUGUCCACAUTT against L2HGDH | inactive: -0.346
92 | ACAUGAUCAUCAGUGUGAATT against FABP4 | inactive: 0.227
93 | ACCAUUUAAUGUUCUCUAUTT against PA2G4 | inactive: -0.803
94 | CACUCUCUACAAUCCGUAATT against EGR2 | inactive: -0.37
95 | GCUCUAACCUCAAUACCCATT against ZSCAN20 | inactive: -0.099
96 | GCUGUCACUUAAUAAUCAATT against KLK11 | inactive: 0.0411
97 | GAUAAUGGAAGGUGAAUUUTT against PMS2L3 | inactive: 0.175
98 | GGAUGUUCACAACCGAAUUTT against CTNNB1 | inactive: 0.0802
99 | GAGCGUGACUGGGUUCUAATT against DDX5 | inactive: 0.891
100 | GGCUCCCUCUUUGUCCUUATT against ZDHHC19 | inactive: 0.0354
101 | CUCCUGGAGUUUUCUCUAATT against ABCG5 | inactive: 0.739
102 | GGUUUAGAGAGAUCGUAAATT against EMR3 | inactive: 0.169
103 | GGGAAUAGCUGGGCUGAGATT against AKR7A2 | inactive: 0.192
104 | GCAUAGUAGUACUAAUUAUTT against ZNF148 | inactive: 0.307
105 | CCAUGUUGCUCCCUAUUUUTT against TSHB | inactive: -0.247
106 | GACUGUUCCUAUACUAGUATT against DBT | inactive: -0.976
107 | GGAUGGCAGGGAUUCCGAATT against ZNF213 | active: 1.37
108 | GUAUUGUCAUAUCUUGAUATT against MTA3 | inactive: 0.342
